Laboratory results from PMC4852720.
These are yes or no findings as the source states them, for the method shown. In cells and extracts the contact can be indirect. Some binding calls cover weakened binding; strength is not graded here.

Amino acid sequences for entries named in this document (tags omitted).
UniProt Q96GX5: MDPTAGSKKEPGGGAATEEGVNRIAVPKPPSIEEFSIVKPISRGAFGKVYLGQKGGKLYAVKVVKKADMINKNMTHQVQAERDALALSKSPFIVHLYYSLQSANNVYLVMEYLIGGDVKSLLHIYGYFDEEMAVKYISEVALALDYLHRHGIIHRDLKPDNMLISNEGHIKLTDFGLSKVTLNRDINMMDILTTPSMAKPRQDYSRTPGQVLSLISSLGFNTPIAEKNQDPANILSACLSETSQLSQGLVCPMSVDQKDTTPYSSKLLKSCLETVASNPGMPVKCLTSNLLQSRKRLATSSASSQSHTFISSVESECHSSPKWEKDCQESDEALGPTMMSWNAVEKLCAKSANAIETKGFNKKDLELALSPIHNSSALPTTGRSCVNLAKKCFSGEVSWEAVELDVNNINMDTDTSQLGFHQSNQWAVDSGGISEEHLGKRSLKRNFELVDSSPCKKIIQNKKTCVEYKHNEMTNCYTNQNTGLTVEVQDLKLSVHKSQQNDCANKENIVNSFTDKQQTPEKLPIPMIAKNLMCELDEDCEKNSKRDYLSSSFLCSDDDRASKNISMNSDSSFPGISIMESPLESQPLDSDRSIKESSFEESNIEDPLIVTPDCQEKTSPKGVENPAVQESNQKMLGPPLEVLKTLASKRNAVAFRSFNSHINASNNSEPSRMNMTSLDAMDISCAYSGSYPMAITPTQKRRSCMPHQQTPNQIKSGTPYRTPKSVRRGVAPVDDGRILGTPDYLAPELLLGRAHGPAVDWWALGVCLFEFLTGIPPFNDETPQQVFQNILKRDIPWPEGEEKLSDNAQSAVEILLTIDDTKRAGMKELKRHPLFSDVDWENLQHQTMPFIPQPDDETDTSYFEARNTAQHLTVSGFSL
UniProt P62140: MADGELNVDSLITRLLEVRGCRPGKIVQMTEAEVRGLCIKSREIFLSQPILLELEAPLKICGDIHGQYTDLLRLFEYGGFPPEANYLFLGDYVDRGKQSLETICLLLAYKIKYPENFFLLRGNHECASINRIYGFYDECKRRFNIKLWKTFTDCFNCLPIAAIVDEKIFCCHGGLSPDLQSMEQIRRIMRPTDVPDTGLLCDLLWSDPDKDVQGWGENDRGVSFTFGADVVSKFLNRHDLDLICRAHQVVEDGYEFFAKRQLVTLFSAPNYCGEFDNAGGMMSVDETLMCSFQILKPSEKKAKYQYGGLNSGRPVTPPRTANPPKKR
UniProt P67775: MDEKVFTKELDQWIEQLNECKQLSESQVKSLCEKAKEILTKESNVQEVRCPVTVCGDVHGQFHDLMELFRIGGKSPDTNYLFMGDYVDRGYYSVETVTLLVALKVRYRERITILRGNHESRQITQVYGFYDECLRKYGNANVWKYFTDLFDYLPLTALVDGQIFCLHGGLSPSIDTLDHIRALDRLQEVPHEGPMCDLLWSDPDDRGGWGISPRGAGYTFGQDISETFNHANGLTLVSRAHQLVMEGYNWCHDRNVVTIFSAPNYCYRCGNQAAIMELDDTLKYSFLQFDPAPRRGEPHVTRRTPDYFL

Columns and labels:
[1] = biological target: microtubule-associated serine-threonine-like kinase (MASTL) (human (endogenous in HeLa)) (UniProt Q96GX5); test: co-IP; endogenous proteins from prometaphase and early mitotic exit (+RO3306) HeLa lysates; IgG- or primary-antibody-bound protein A/G magnetic beads mixed with lysates 16-18 h at 4°C; western blot; in some cases a second round of depletion 2 h at room temperature
[2] = biological target: microtubule-associated serine-threonine-like kinase (MASTL) (human (endogenous in HeLa)) (UniProt Q96GX5); test: proximity ligation; in situ PLA with pairs of primary antibodies on cells across interphase, prophase, prometaphase, metaphase, anaphase and telophase; dots counted with Imaris; detects two proteins within 40 nm
[3] = biological target: catalytic β subunit of PP1 (PPP1CB) (human (endogenous in HeLa)) (UniProt P62140); test: co-IP; endogenous proteins from prometaphase and early mitotic exit (+RO3306) HeLa lysates; IgG- or primary-antibody-bound protein A/G magnetic beads mixed with lysates 16-18 h at 4°C; western blot; in some cases a second round of depletion 2 h at room temperature

Row | binding [1] | binding [2] | binding [3] | Substance
1 | no binding | no binding | – | catalytic subunit of PP2A, PP2A/C (PPP2CA) (from UniProt P67775 1-309) (enzyme)
2 | – | binds | – | catalytic β subunit of PP1 (PPP1CB) (from UniProt P62140 1-327) (enzyme)
3 | – | – | binds weakly | microtubule-associated serine-threonine-like kinase (MASTL) (from UniProt Q96GX5 1-879) (enzyme)
